# Screen size: about 310,000 compounds; about 17,000 (5.5%) were called active. The inconclusive results got no clear call from the source; some entries with a clear call stand among them for comparison. Calls come from the whole dose curve; as a rule, active = well fitted inhibition curve with a large enough effect; inconclusive = small, poorly fitted or top-dose-only effect, or effect the other way; inactive = no such curve, though single readings can be large or run the other way. Potencies beside an inconclusive call are fits to weak or partial responses and may not hold up.
# Sequences of proteins named here, by UniProt entry; tags and fusion partners are left off. A change or cut given only in a name is not applied to a line headed by its entry.
# UniProt P51450: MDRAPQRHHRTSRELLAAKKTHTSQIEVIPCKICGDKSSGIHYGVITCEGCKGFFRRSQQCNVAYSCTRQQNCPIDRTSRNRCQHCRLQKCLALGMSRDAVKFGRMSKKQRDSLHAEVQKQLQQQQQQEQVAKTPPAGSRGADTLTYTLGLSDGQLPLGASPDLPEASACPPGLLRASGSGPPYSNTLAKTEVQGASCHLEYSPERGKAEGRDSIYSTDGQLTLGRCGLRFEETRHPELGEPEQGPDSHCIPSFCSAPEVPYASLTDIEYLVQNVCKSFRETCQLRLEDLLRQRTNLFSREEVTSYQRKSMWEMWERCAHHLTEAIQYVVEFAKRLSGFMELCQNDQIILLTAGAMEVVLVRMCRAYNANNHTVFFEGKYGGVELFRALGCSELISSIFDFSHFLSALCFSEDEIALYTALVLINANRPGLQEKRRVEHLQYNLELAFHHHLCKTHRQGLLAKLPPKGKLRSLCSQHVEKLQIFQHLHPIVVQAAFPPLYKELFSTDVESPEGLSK
# Target: Nuclear receptor ROR-gamma (Mus musculus) (UniProt P51450)
# Assay: qHTS for inhibitors of ROR gamma transcriptional activity; note: nearly all actives have a fitted effect of over 60% in size
# Settings: Drosophila S2 Gal4-RORgamma UAS-luciferase reporter, 20 h; activity change, negative = inhibition: at 53.6 µM (top of the series)
# Summary of the method: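 Luciferase reporter read in Schneider cells carrying Gal4-RORγ (mouse) and UAS-Photinus luciferase; cells given compound 1 h before 700 uM copper sulfate induction, then incubated 20 h at ambient temperature.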
# % is set by controls: 0 for no effect and ±100 for the full control effect; potency is the fitted concentration of half-maximal effect.
Compound,Potency,"activity change, negative = inhibition"
COc1ccc(CNCCCO)cc1OC,"inconclusive: 2.24 µM [inhibitor, partial curve, poor fit]",
CC1=C(C(=O)OCC2CCCO2)C(c2cccc(C(F)(F)F)c2)C2=C(CC(c3ccco3)CC2=O)N1 (stereo not given),"inconclusive: 0.447 µM [inhibitor, single point]",
COc1cccc(NC(=S)N2CCCN(Cc3ccc(F)cc3)C2)c1,active: 3.55 µM,
CCOC(=O)Cc1csc(NC(=S)NC(=O)C(C)(C)C)n1,"inconclusive: 20 µM [inhibitor, single point]",
CCOC(=O)N1CCN(C(=O)c2ccc(Cn3c(=S)[nH]c4cc(OCC)c(OCC)cc4c3=O)cc2)CC1,"inconclusive: 11.2 µM [inhibitor, partial curve]",
Cc1ccc(CCNC(=O)Cc2ccc(NC3=NC4CS(=O)(=O)CC4S3)cc2)cc1 (stereo not given),,inactive: -11.2%
O=S(=O)(c1ccccc1)N1CCN(c2ccnc3cc(Cl)ccc23)CC1,"inconclusive: 35.5 µM [inhibitor, single point]",
O=C(c1ccc2ncsc2c1)N1CCN(c2nc3ccccc3s2)CC1,"inconclusive: 11.2 µM [activator, single point]",
CC(C)=CCC1=C(OCC(=O)O)C(=O)c2ccccc2C1=O,"inconclusive: 5.01 µM [inhibitor, partial curve]",
CCN1CCN(C(=S)Nc2cccc(C(F)(F)F)c2)CC1,,inactive: 1.05%
Cc1ccc(S(=O)(=O)c2ccc([N+](=O)[O-])cn2)cc1,active: 3.16 µM,
c1cncc(CNc2ncncc2-c2cccnc2)c1,,inactive: -0.107%
CC1=CC2=NC(=O)/C(=C\c3ccc(-c4cccc(Cl)c4)o3)C(=N)N2O1,"inconclusive: 14.1 µM [inhibitor, single point]",
Cc1ccc(NC(=O)C(C)N=C2NS(=O)(=O)c3ccccc32)cc1 (stereo not given),"inconclusive: 20 µM [inhibitor, single point]",
CCN(CC)S(=O)(=O)c1ccc2c(c1)nc(CCC(=O)OCC(=O)Nc1cc(Cl)cc(Cl)c1)n2C,"inconclusive: 15.8 µM [activator, single point]",
C/C=C/C(=O)OCC(=O)Nc1ccc(SC(F)F)cc1,"inconclusive: 14.1 µM [activator, single point]",
CCOC(=O)c1ccc(NC(=O)Cn2nc(C)c3ccccc3c2=O)cc1,,inactive: 8.66%
CC(=O)Nc1ccc(/C=C(\C#N)C(=O)NC2CCCCC2C)cc1 (stereo not given),,inactive: 7.2%
CC12C(=O)N(c3cccc(OC(=O)c4ccco4)c3)C(=O)C1C1c3ccccc3C2c2ccccc21 (stereo not given),"inconclusive: 0.224 µM [inhibitor, partial curve]",
Cn1c(-c2ccco2)n[nH]c1=S,"inconclusive: 20 µM [inhibitor, single point]",
Cc1nn(-c2ccccc2)c(C)c1C(=O)NCc1ccccc1F,,inactive: 10.7%
Cc1cc(=O)oc2c(C)c(OCC(=O)Nc3cccnc3)ccc12,,inactive: -6.05%
Cc1cc(C)n(Cc2ccc(C(=O)Nc3cccc(Br)c3)o2)n1,"inconclusive: 10 µM [activator, partial curve]",
COc1ccccc1Nc1nc(N)nc(CN2CCCCC2)n1,,inactive: -40.6%
CC1(C(=O)N2CCN(c3ccc([N+](=O)[O-])cc3)CC2)CC1(Cl)Cl (stereo not given),"inconclusive: 14.1 µM [activator, partial curve, poor fit]",

# No new results follow: entries from further up.
Compound,Potency,"activity change, negative = inhibition"
O=S(=O)(c1ccccc1)N1CCN(c2ccnc3cc(Cl)ccc23)CC1,"inconclusive: 35.5 µM [inhibitor, single point]",
O=C(c1ccc2ncsc2c1)N1CCN(c2nc3ccccc3s2)CC1,"inconclusive: 11.2 µM [activator, single point]",

# The list goes on:

Compound,Potency,"activity change, negative = inhibition"
C/C(CC(C)C)=N\Oc1nc(C)cc(C)n1,active: 6.31 µM,
Cc1nn(Cc2ccc(Cl)c(Cl)c2)c(C)c1NC(=O)c1cc(CC(C)C)on1,"inconclusive: 15.8 µM [activator, single point]",
CC1CCCC(C)N1C(=O)CSCc1ccc(Cl)cc1 (stereo not given),"inconclusive: 22.4 µM [activator, single point]",
O=C(N/N=C/c1c[nH]c2ccccc12)C1CC(=O)N(c2ccccc2)C1 (stereo not given),"inconclusive: 5.62 µM [inhibitor, single point]",
CNc1ncnc2ccc(-c3cccc(NS(C)(=O)=O)c3)cc12,"inconclusive: 10 µM [activator, partial curve]",
COc1ccccc1OCc1ccc(C(=O)NC(C)c2ccccc2)o1 (stereo not given),"inconclusive: 10 µM [activator, partial curve]",
COc1cc(C(=O)NC(=S)NNC(=O)c2ccc3c(c2)OCO3)cc(OC)c1OC,"inconclusive: 15.8 µM [inhibitor, single point]",
O=[N+]([O-])c1cc(-c2cnc3ccccc3n2)ccc1Oc1ccc(Br)cc1,"inconclusive: 0.224 µM [activator, full curve]",
CC(=O)c1cccc(NC(=S)NC(=O)c2cccc(Cl)c2)c1,active: 2.82 µM,
Cn1c(=O)cc(OCCCC(=O)NCc2ccc(F)cc2Cl)c2ccccc21,"inconclusive: 11.2 µM [inhibitor, single point]",
CC(=O)c1c(C)[nH]c(C(=O)/C(C#N)=C/c2cccc(C)c2)c1C,,inactive: 21.2%
Cc1nc2ccccc2c(=O)n1/N=C/c1ccc(O)cc1O,,inactive: -30.2%
CC1=NN(c2ccccc2)C(=O)/C1=C\c1ccc(Br)s1,"inconclusive: 22.4 µM [inhibitor, single point]",
CC(C(=O)c1ccc(-c2ccccc2)cc1)[n+]1ccccc1 (stereo not given),"inconclusive: 22.4 µM [activator, single point]",
COC(=O)c1sc(NC(=S)NC(=O)c2ccccc2)nc1C,"inconclusive: 2.24 µM [inhibitor, full curve]",
Cc1ccccc1Cc1c(C)nc2c(C(=O)NCc3ccc4c(c3)OCO4)cnn2c1C,,inactive: -9.1%
CN(CCC#N)C(=O)COC(=O)c1ccc2[nH]c3c(c2c1)CCCC3,,inactive: 6.14%
O=C(CSc1nc2ccccc2c(=O)n1-c1ccccc1)N1CCCc2ccccc21,"inconclusive: 17.8 µM [activator, single point]",
O=C(NCc1cccs1)Nc1cc(Cl)ccc1Cl,"inconclusive: 0.1 µM [inhibitor, full curve, poor fit]",
COc1ccc(/C(O)=C(\C#N)c2nc3ccccc3n2C)cc1OC,active: 7.08 µM,
COc1cccc(CC(NC(C)=O)C(=O)NC2CCN(c3nnnn3-c3ccccc3)CC2)c1OC (stereo not given),,inactive: 8.54%
CCOCCOC(=O)c1ccc(-n2cncn2)nc1,"inconclusive: 20 µM [inhibitor, single point]",
COc1cc2[nH]c3c(=O)n(CCN(C(C)C)C(C)C)cnc3c2cc1OC,,inactive: -14.1%
Cc1ccsc1CCNC(=O)C1CCC(=O)N(CCc2cccc(F)c2)C1 (stereo not given),,inactive: 8.68%
COc1cccc(C(=O)NCc2n[nH]c(=S)n2-c2cccc(C)c2)c1,"inconclusive: 35.5 µM [inhibitor, single point]",

# Reformatted: two of the compounds above
Compound	Potency	activity change, negative = inhibition
COc1ccccc1OCc1ccc(C(=O)NC(C)c2ccccc2)o1 (stereo not given)	inconclusive: 10 µM [activator, partial curve]	
Cc1nc2ccccc2c(=O)n1/N=C/c1ccc(O)cc1O		inactive: -30.2%

# Next part

Compound,Potency,"activity change, negative = inhibition"
CO/N=C/C(=N\Nc1ccc(C)cc1)C(=O)c1ccc(OC)cc1,,inactive: -10.9%
Cc1ccc(NC(=S)Nc2ccc(OC(F)F)c(Cl)c2)cc1F,"inconclusive: 22.4 µM [inhibitor, single point]",
CCn1c(=O)c(C(=O)NNC(=O)Cc2ccccc2)c(O)c2ccccc21,active: 12.6 µM,
CCOC(=O)c1[nH]c(CSc2nnc(-c3ccc(OC)cc3)o2)c(C(=O)OCC)c1C,,inactive: 16.4%
CCn1c(=O)n(Cc2ccco2)c(=N)c2c3c(sc21)COC(C)(C)C3,"inconclusive: 8.91 µM [activator, partial curve]",
Cc1cccc(C(=O)NNC(=O)c2c(-c3ccccc3Cl)noc2C)c1O,active: 10 µM,
Cc1cccc(C)c1Nc1nnc(SCc2nc3ccccc3s2)s1,"inconclusive: 35.5 µM [inhibitor, single point]",
O=C(O)c1cc(NCc2c(F)cccc2Cl)ccc1N1CCOCC1,"inconclusive: 0.631 µM [activator, full curve, poor fit]",
CN(C)CCCN(C(=O)/C=C/c1cccs1)c1nc2ccc(F)cc2s1,"inconclusive: 25.1 µM [inhibitor, single point]",
Cc1nc(SCC(=O)NCc2cccs2)nc(C)c1C,"inconclusive: 12.6 µM [activator, single point]",
O=C(c1cccc(Br)c1)N1CCCc2ccccc21,"inconclusive: 0.005 µM [inhibitor, full curve, poor fit]",
CC(=O)c1cc(C#N)c(SCc2ccccn2)nc1C,"inconclusive: 14.1 µM [inhibitor, single point]",
O=C(CNC(=O)c1ccco1)N/N=C/c1cc(Br)ccc1O,active: 8.91 µM,
CC(=Nc1cccc(C)c1)c1sc2ccccc2c1O,,inactive: -28.3%
COc1ccc(-n2cnc(N)c2C(=O)c2cccc([N+](=O)[O-])c2)cc1,active: 11.2 µM,
Cc1ccccc1N1C(=O)CC(N(O)c2ccccc2)C1=O (stereo not given),,inactive: 0%
COC(=O)C/C=C/C(C)C(OCc1cccc(-c2ccccc2)c1)C1CCCCC1 (stereo not given),,inactive: 0.757% [at 10 µM]
Cn1c(OCc2cccnc2)nc2c1c(=O)n(Cc1ccc(F)cc1)c(=O)n2C,,inactive: -33.7%
CN(C)S(=O)(=O)c1cccc(COC(=O)c2cnccn2)c1,,inactive: -9.53%
Cc1cc(OCCn2ccnc2)cc(C)c1Cl,"inconclusive: 22.4 µM [inhibitor, single point]",
O=S(=O)(c1cccs1)N1CCc2ccccc2C1,"inconclusive: 5.62 µM [inhibitor, partial curve]",
O=C(NCc1ccco1)N1c2ccccc2Sc2ccccc21,"inconclusive: 4.47 µM [activator, single point]",
Cc1nn(CC#N)c(=O)n1-c1ccccc1F,active: 10 µM,
Cc1cc(C)nc(N2CCC(C(=O)NCCc3ccc(F)cc3)CC2)n1,"inconclusive: 14.1 µM [activator, single point]",
CCn1c(C)c(C(C)=O)c(N2CCN(c3cccc(Cl)c3)CC2)nc1=S,"inconclusive: 5.62 µM [inhibitor, single point]",

# Reference: PubChem BioAssay AID2551 (National Center for Advancing Translational Sciences (NCATS), 2010)
